# Screen size: about 360,000 compounds; about 7,500 (2.1%) were called active. The inconclusive results got no clear call from the source; some entries with a clear call stand among them for comparison. Calls follow the shape of the dose curve; as a rule, active = well fitted inhibition curve with a large enough effect; inconclusive = small, poorly fitted or top-dose-only effect, or effect the other way; inactive = flat fitted curve, though single readings scatter. A potency beside an inconclusive call is a rough fit, not a confirmed value.
# Assay: Nrf2 qHTS screen for inhibitors; also: nearly all actives have a fitted effect of over 60% in size
# Conditions: A549 ARE-Fluc reporter, luciferase luminescence, 18-24 h; activity change, negative = inhibition: at 46 µM (top of the series)
# Summary of the method: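 Nrf2 function is reported as luminescence of an ARE-controlled luciferase in A549 cells. Compounds were tested at several concentrations, and a CellTiter-Fluor read on the same wells flagged cytotoxicity.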
# % is scaled to controls: 0 for no effect and ±100 for the full control effect; potency is read from the fitted curve at half-maximal effect.
Compound,Potency,"activity change, negative = inhibition"
COc1cc(C(=O)Nc2ccc(S(=O)(=O)N3CCCCC3C)cc2)cc(OC)c1OC (stereo unspecified),"inconclusive: 32.6 µM [falling, partial curve, poor fit]",
O=C(NCc1ccc2c(c1)OCO2)C(=O)NCC(c1ccco1)N1CCN(c2ccccc2)CC1 (stereo unspecified),"inconclusive: 8.2 µM [falling, partial curve, poor fit]",
CC1C(=O)C(C)C(c2ccc(Br)cc2)NC1c1ccc(Br)cc1 (stereo unspecified),"inconclusive: 23.1 µM [activator, single point]",
CC(C)c1ccc(CNC(=O)C2CCCN2S(=O)(=O)c2ccccc2)cc1 (stereo unspecified),"inconclusive: 11.6 µM [falling, partial curve, poor fit]",
CCCCOc1cccc(C(=O)Nc2ccc3oc(-c4cccnc4)nc3c2)c1,active: 6.51 µM,
O=C(Cc1cccs1)N/N=C\c1ccc([N+](=O)[O-])s1,"inconclusive: 29.1 µM [falling, single point]",
CC1(CC(=O)N/N=C/c2ccc(-c3ccc(Cl)cc3)o2)OCCO1,"inconclusive: 29.1 µM [activator, single point]",
CCOc1ccccc1NC(=O)Cn1cnc2sc(C)c(S(=O)(=O)N3CCC(C)CC3)c2c1=O,,inactive: -4.66% [at 9.27 µM]
Cc1ccc(NC(=O)c2cc3ccccc3o2)cc1S(=O)(=O)N(C)C,"inconclusive: 2.91 µM [activator, partial curve]",
CN(CC(=O)Nc1ccc(Cl)cc1)C(=O)c1ccc(S(=O)(=O)Nc2ccccc2)cc1,"inconclusive: 25.9 µM [falling, single point]",
Cc1ccc(NC(=O)C2OCCc3ccccc32)cc1C (stereo unspecified),"inconclusive: 14.6 µM [activator, partial curve]",
CC(C)C[C@H](NC(=O)OCC1c2ccccc2-c2ccccc21)C(=O)O,"inconclusive: 2.31 µM [activator, partial curve]",
O=C(c1ccc(F)cc1)N1CCC(c2ccccc2)C1 (stereo unspecified),"inconclusive: 23.1 µM [activator, single point]",
O=C(Nc1cc(Cl)ccc1Cl)C1CC(=O)N(c2ccc(Br)cc2)C1 (stereo unspecified),"inconclusive: 9.2 µM [falling, partial curve, poor fit]",
Cc1ccc(C(C(=O)Nc2ccc3c(c2)OCO3)N(C)C(=O)Cc2c[nH]c3ccccc23)cc1 (stereo unspecified),active: 23.1 µM,
Cc1ccc(NC(=O)C(=O)NCC2OCCc3ccccc32)cc1 (stereo unspecified),inactive,
CC1CCCCN1S(=O)(=O)c1ccc(S(=O)(=O)N(Cc2ccccc2)Cc2ccco2)cc1 (stereo unspecified),"inconclusive: 5.17 µM [falling, partial curve, poor fit]",
COCCCNC(=O)C1CCC(CNS(=O)(=O)c2ccc3c(c2)N(C(C)=O)CCO3)CC1 (stereo unspecified),inactive,
O=C(NCc1ccccc1Cl)c1cc2ccccc2o1,inactive,
COc1cc(-c2nc3ncccn3c2Nc2ccc(C)cc2C)ccc1O,"inconclusive: 25.9 µM [activator, single point]",
Cc1ccc(C(=O)N=c2sccn2C)cc1C,"inconclusive: 1.03 µM [activator, partial curve]",

Compound,Potency,"activity change, negative = inhibition"
COc1ccccc1C(c1c(N)n(C)c(=O)n(C)c1=O)C(C)[N+](=O)[O-] (stereo unspecified),"inconclusive: 0.146 µM [falling, full curve, poor fit]",
O=C(CN1C(=O)CC(c2ccccc2)Sc2ccccc21)Nc1cccc(Cl)c1 (stereo unspecified),"inconclusive: 32.6 µM [falling, single point]",
CC(=O)c1cccc(NC(=O)CCS(=O)(=O)c2ccc(Br)s2)c1,inactive,
CCc1nc(N2CCCCC2C)c2oc3ccccc3c2n1 (stereo unspecified),"inconclusive: 29.1 µM [falling, single point]",
O=C(CSc1nnc(-c2cccnc2)o1)Nc1cccc(F)c1,inactive,
C(=N\Nc1nc(-c2ccccc2)cs1)/c1cccs1,"inconclusive: 2.59 µM [activator, full curve]",
COc1ccc(OC)c(CN2CCN(Cc3cc(=O)oc4cc(O)ccc34)CC2)c1,"inconclusive: 14.6 µM [activator, single point]",
Cc1ccc(CCNC(=O)C2CCN(c3nnc(-n4cccc4CNc4ccc(C)cc4)s3)CC2)cc1,"inconclusive: 29.1 µM [falling, single point]",
Cc1cccc(N2CCN(C(=O)c3c(Cl)cnn3C)CC2)c1C,"inconclusive: 20.6 µM [falling, partial curve]",
Cc1ccc(-n2ncc(C(=O)Nc3ccc4c(c3)OCO4)c2C2CCN(C(=O)OC(C)(C)C)CC2)cc1,"inconclusive: 29.1 µM [falling, single point]",
COc1ccc(NC(=S)N(CCc2c(C)[nH]c3ccc(C)cc23)Cc2ccco2)cc1,inactive,
Cc1ccnc(NS(=O)(=O)c2cc(-c3cc(C)no3)ccc2C)c1,"inconclusive: 32.6 µM [falling, partial curve, poor fit]",
COc1ccc(NC(=O)C2CCC2)cc1S(=O)(=O)Nc1cc(C)ccc1Br,active: 20.6 µM,
COc1ccc(C2=NN(CN3C(=O)C(=O)c4ccccc43)C(c3ccc(OC)cc3)C2)cc1 (stereo unspecified),"inconclusive: 6.51 µM [activator, single point]",
COc1ccc(/C=C/C(=O)c2ccc3c4c(cccc24)CC3)cc1,"inconclusive: 18.4 µM [falling, single point]",
O=[N+]([O-])c1ccc2nc(-c3ccccc3)[nH]c2c1,"inconclusive: 16.4 µM [activator, partial curve]",
CCn1cc(C(=O)N2CCN(c3ccccn3)CC2)c(=O)c2cc(S(=O)(=O)N3CCC(C)CC3)ccc21,"inconclusive: 4.11 µM [falling, full curve, poor fit]",
COc1ccc(NC(=O)C2CCCN(S(=O)(=O)c3ccc4c(c3)CCCC(=O)N4)C2)c(OC)c1 (stereo unspecified),"inconclusive: 23.1 µM [falling, partial curve, poor fit]",
O=C(NC(=S)Nc1ccc(Br)cc1)C1CCC1,"inconclusive: 14.6 µM [activator, partial curve, poor fit]",
O=C(COc1ccc2c(c1)CCC2)Nc1ccccn1,"inconclusive: 2.59 µM [activator, partial curve]",

# Entries above that have a nitro group on carbon, in the order listed:
Compound,Potency,"activity change, negative = inhibition"
O=C(Cc1cccs1)N/N=C\c1ccc([N+](=O)[O-])s1,"inconclusive: 29.1 µM [falling, single point]",
COc1ccccc1C(c1c(N)n(C)c(=O)n(C)c1=O)C(C)[N+](=O)[O-] (stereo unspecified),"inconclusive: 0.146 µM [falling, full curve, poor fit]",
O=[N+]([O-])c1ccc2nc(-c3ccccc3)[nH]c2c1,"inconclusive: 16.4 µM [activator, partial curve]",

# Source: PubChem BioAssay AID504444 (National Center for Advancing Translational Sciences (NCATS), 2011)
